Several values for one entry are separate records, joined by “and”; a condition that tells them apart may be missing. Equal entries are not always repeated. ± gives the standard deviation of the averaged measurements. Some of the results follow. Repeats in this data set agree poorly, so a single value says little.
System: IL-6-GFP PC-9
Test: IL-6-GFP fluorescence relative to DMSO control (fraction of control); higher = more IL-6-GFP expression
Details: compound concentration: 10 uM; treatment time: 48 h
Method: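 IL-6-GFP-overexpressing PC-9 and PC-9GR EGFR-mutant lung cancer cells (3000 cells/well, 96-well) were treated for 48 h with each compound of the Selleck L2000 library at 10 uM. IL-6-GFP fluorescence was read on a high-content screening system, and viability by CCK-8 absorbance on a parallel plate set. Each value was normalised as compound well / DMSO control well; two independent replicates.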

SMILES | IL-6-GFP fluorescence
CNC(=O)c1ccc(N2C(=S)N(c3ccc(C#N)c(C(F)(F)F)c3)C(=O)C2(C)C)cc1F [Enzalutamide (MDV3100)] | 0.861 ± 0.07
O=C(OCC1OC(OC(=O)c2cc(O)c(O)c(OC(=O)c3cc(O)c(O)c(O)c3)c2)C(OC(=O)c2cc(O)c(O)c(OC(=O)c3cc(O)c(O)c(O)c3)c2)C(OC(=O)c2cc(O)c(O)c(OC(=O)c3cc(O)c(O)c(O)c3)c2)C1OC(=O)c1cc(O)c(O)c(OC(=O)c2cc(O)c(O)c(O)c2)c1)c1cc(O)c(O)c(OC(=O)c2cc(O)c(O)c(O)c2)c1 (configuration not stated) [Tannic acid] | 0.848 ± 0.18
CC1CC2C3CCC4=CC(=O)C=CC4(C)C3(F)C(O)CC2(C)C1(O)C(=O)CO (configuration not stated) [Dexamethasone (DHAP)] | 1.17 ± 0.16
Cc1cnc(C(=O)NC2CCCCC/C=C\C3CC3(C(=O)NS(=O)(=O)C3CC3)NC(=O)C3CC(Oc4nc5ccccc5c5ccccc45)CN3C2=O)cn1 (configuration not stated) [Paritaprevir (ABT-450)] | 0.815 ± 0.092
CC(C)c1nc(CN(C)C(=O)NC(CCN2CCOCC2)C(=O)NC(CCC(Cc2ccccc2)NC(=O)OCc2cncs2)Cc2ccccc2)cs1 (configuration not stated) [Cobicistat (GS-9350)] | 0.854 ± 0.14
Clc1ccc(C(c2ccccc2Cl)C(Cl)Cl)cc1 (configuration not stated) [Mitotane] | 0.88 ± 0.063
CCOC(=O)c1ccc(OC(=O)CCCCCNC(=N)N)cc1.CS(=O)(=O)O [Gabexate Mesylate] | 0.938 ± 0.23
Cc1ccc(Nc2nccc(N(C)c3ccc4c(C)n(C)nc4c3)n2)cc1S(N)(=O)=O [Pazopanib] | 0.957 ± 0.038
CC(OC1OCCN(Cc2n[nH]c(=O)[nH]2)C1c1ccc(F)cc1)c1cc(C(F)(F)F)cc(C(F)(F)F)c1 (configuration not stated) [Aprepitant] | 1.03 ± 0.17
CS(=O)(=O)n1cc2c(n1)CN(C1COC(c3cc(F)ccc3F)C(N)C1)C2 (configuration not stated) [Omarigliptin (MK-3102)] | 0.8912 ± 0.0076
CC1CC2C3CCC4=CC(=O)C=CC4(C)C3C(=O)CC2(C)C1(O)C(=O)CO (configuration not stated) [Meprednisone] | 0.88 ± 0.14
CC(C)Cn1cnc2c(N)nc3ccccc3c21 [Imiquimod] | 1.26 ± 0.23
C[Se]CC[C@H](N)C(=O)O [L-SelenoMethionine] | 2.13 ± 0.29
CC[N+](CC)(CC)CCOc1cccc(OCC[N+](CC)(CC)CC)c1OCC[N+](CC)(CC)CC.[I-].[I-].[I-] [Gallamine Triethiodide] | 0.945 ± 0.18
CC(=O)[N-]S(=O)(=O)c1ccc(N)cc1.[Na+] [Sulfacetamide Sodium] | 0.967 ± 0.017
CNCC(O)c1ccc(O)c(O)c1.O=C(O)C(O)C(O)C(=O)O (configuration not stated) [Epinephrine bitartrate] | 1.53 ± 0.75
CCS(=O)(=O)O.COC(=O)c1ccc2c(c1)NC(=O)/C2=C(\Nc1ccc(N(C)C(=O)CN2CCN(C)CC2)cc1)c1ccccc1 [Nintedanib Ethanesulfonate Salt] | 1.19 ± 0.1
FC(F)(F)c1ccc(CNc2ccc(Cc3c[nH]c4ncc(Cl)cc34)cn2)cn1 [Pexidartinib (PLX3397)] | 0.904 ± 0.0098
CCN1CCN(Cc2ccc(Nc3ncc(F)c(-c4cc(F)c5nc(C)n(C(C)C)c5c4)n3)nc2)CC1 [Abemaciclib] | 0.874 ± 0.064
N#CCC(C1CCCC1)n1cc(-c2ncnc3[nH]ccc23)cn1 (configuration not stated) | 1.01 and 1.06
CC(=O)OCC1OC(n2ccc(=O)[nH]c2=O)C(OC(C)=O)C1OC(C)=O (configuration not stated) [uridine triacetate] | 0.786 ± 0.032
CC1=C(/C=C/C(C)=C/C=C/C(C)=C/C(=O)O)C(C)(C)CCC1 [Tretinoin] | 0.918 ± 0.16
COC(=O)C(Cc1ccccc1)NC(=O)C(N)CC(=O)O (configuration not stated) [Aspartame] | 0.8025 ± 0.0049
COc1ccc(-c2cc(=S)ss2)cc1 [Anethole trithione] | 0.734 ± 0.048
COc1cc(C2Oc3cc(C4Oc5cc(O)cc(O)c5C(=O)C4O)ccc3OC2CO)ccc1O (configuration not stated) [Silibinin] | 0.738 ± 0.15
CC(=O)OC1C(=O)C2(C)C(O)CC3OCC3(OC(C)=O)C2C(OC(=O)c2ccccc2)C2(O)CC(OC(=O)C(O)C(NC(=O)c3ccccc3)c3ccccc3)C(C)=C1C2(C)C (configuration not stated) [Paclitaxel] | 0.98 ± 0.058
COC(=O)CC(O)(CCCC(C)(C)O)C(=O)OC1C(OC)=CC23CCCN2CCc2cc4c(cc2C13)OCO4 (configuration not stated) [Homoharringtonine] | 1.01 ± 0.12

Random excerpt: two records from the list.
SMILES | IL-6-GFP fluorescence
CCS(=O)(=O)O.COC(=O)c1ccc2c(c1)NC(=O)/C2=C(\Nc1ccc(N(C)C(=O)CN2CCN(C)CC2)cc1)c1ccccc1 [Nintedanib Ethanesulfonate Salt] | 1.19 ± 0.1
CC[N+](CC)(CC)CCOc1cccc(OCC[N+](CC)(CC)CC)c1OCC[N+](CC)(CC)CC.[I-].[I-].[I-] [Gallamine Triethiodide] | 0.945 ± 0.18
